Test results reported in paper PMC11772845.

Protein sequences, listed by entry. Tags and fused reporters are not part of them. Lines headed by an entry give the natural chain unless they say otherwise; changes in a name come on top.
UniProt P38172: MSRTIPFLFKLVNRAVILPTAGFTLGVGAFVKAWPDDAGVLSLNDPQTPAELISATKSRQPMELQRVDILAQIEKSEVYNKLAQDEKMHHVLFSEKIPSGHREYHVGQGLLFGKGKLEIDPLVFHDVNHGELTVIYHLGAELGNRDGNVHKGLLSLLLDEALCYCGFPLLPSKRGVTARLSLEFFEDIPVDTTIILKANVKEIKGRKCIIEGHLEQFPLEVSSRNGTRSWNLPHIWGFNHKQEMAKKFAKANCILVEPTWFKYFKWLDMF
UniProt P40098: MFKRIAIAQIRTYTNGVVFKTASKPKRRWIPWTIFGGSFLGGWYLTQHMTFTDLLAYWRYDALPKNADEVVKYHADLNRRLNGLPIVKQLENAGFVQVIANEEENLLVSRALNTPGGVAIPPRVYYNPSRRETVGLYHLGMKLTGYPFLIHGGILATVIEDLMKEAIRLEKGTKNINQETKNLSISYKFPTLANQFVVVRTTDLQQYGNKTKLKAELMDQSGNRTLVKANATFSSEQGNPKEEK

Legend:
Cor1TAP (S. cerevisiae) = biological target: T1, Cor1TAP (S. cerevisiae) (UniProt P07256); assay: co-IP; protein A- or TAP-tagged bait captured on IgG-Sepharose from mitochondria solubilised in 1% digitonin (20 mM Tris-HCl pH 7.4, 50 mM NaCl, 0.1 mM EDTA, 10% glycerol), washed with 0.3% digitonin, eluted with TEV protease at 4 °C; eluates analysed by SDS-PAGE or BN-PAGE and western blot; untagged wild type as control; also done with rho-, mic10Δ (Mic60 bait), mar26Δ, rip1Δ and Mar26-overexpressing mitochondria
T1 sequence: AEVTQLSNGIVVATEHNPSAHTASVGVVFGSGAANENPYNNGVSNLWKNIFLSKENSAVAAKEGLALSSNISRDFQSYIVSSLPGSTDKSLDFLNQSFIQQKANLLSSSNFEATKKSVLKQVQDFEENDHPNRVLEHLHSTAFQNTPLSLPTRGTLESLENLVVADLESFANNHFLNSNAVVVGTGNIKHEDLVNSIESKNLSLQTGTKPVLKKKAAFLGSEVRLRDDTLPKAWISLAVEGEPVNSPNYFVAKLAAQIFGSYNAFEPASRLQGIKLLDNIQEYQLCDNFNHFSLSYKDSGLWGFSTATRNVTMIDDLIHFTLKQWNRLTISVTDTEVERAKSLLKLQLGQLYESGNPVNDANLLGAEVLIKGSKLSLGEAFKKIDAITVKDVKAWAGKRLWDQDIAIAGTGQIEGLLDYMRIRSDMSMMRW

[1] = biological target: T2, Mic60_(ProtA) (S. cerevisiae) (UniProt P36112); assay: as above
T2 sequence: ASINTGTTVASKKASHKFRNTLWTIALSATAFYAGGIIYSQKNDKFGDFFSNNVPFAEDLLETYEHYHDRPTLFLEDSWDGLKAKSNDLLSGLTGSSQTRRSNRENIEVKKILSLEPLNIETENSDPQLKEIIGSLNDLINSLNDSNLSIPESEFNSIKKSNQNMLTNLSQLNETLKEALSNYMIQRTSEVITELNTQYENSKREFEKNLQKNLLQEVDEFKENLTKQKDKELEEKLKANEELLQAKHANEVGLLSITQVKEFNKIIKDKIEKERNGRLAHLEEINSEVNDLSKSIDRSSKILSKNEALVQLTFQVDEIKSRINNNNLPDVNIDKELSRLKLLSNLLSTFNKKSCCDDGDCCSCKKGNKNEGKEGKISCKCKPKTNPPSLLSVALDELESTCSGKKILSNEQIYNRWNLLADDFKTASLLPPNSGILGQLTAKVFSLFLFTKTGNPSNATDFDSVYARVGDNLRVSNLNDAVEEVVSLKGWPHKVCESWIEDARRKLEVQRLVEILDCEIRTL

[2] = biological target: Mrx3_(ProtA) (S. cerevisiae) (UniProt P38172); assay: as above
[3] = biological target: Mar26_(ProtA) (S. cerevisiae) (UniProt P40098); assay: as above
[4] = biological target: Mar26_(ProtA) (S. cerevisiae) (UniProt P40098); assay: co-IP; [^35S]-labelled Rip1 imported into Mar26_(ProtA)bcs1Δ mitochondria (export of Rip1 from the matrix blocked), IgG chromatography, autoradiography
[5] = biological target: Mar26_(ProtA) (S. cerevisiae) (UniProt P40098); assay: co-IP; [^35S]-labelled precursor imported into isolated mitochondria that carry the protein A-tagged bait; then digitonin solubilisation, IgG chromatography, SDS-PAGE (or two-dimensional gel) and autoradiography

B1: Cyt1 (protein, UniProt P07143 62-309)
chain: MTAAEHGLHAPAYAWSHNGPFETFDHASIRRGYQVYREVCAACHSLDRVAWRTLVGVSHTNEEVRNMAEEFEYDDEPDEQGNPKKRPGKLSDYIPGPYPNEQAARAANQGALPPDLSLIVKARHGGCDYIFSLLTGYPDEPPAGVALPPGSNYNPYFPGGSIAMARVLFDDMVEYEDGTPATTSQMAKDVTTFLNWCAEPEHDERKRLGLKTVIILSSLYLLSIWVKKFKWAGIKTRKFVFNPPKPRK
binding [2]: binds weakly

B2: Cox2 (protein, UniProt P00410 16-251)
chain: DVPTPYACYFQDSATPNQEGILELHDNIMFYLLVILGLVSWMLYTIVMTYSKNPIAYKYIKHGQTIEVIWTIFPAVILLIIAFPSFILLYLCDEVISPAMTIKAIGYQWYWKYEYSDFINDSGETVEFESYVIPDELLEEGQLRLLDTDTSMVVPVDTHIRFVVTAADVIHDFAIPSLGIKVDATPGRLNQVSALIQREGVFYGACSELCGTGHANMPIKIEAVSLPKFLEWLNEQ
binding [2]: binds weakly | binding [3]: binds

B3: Rip1 (protein, UniProt P08067 31-215)
chain: KSTYRTPNFDDVLKENNDADKGRSYAYFMVGAMGLLSSAGAKSTVETFISSMTATADVLAMAKVEVNLAAIPLGKNVVVKWQGKPVFIRHRTPHEIQEANSVDMSALKDPQTDADRVKDPQWLIMLGICTHLGCVPIGEAGDFGGWFCPCHGSHYDISGRIRKGPAPLNLEIPAYEFDGDKVIVG
binding [2]: binds weakly | binding [3]: binds

Next, values leading:

binding (Cor1TAP (S. cerevisiae)): binds | binding [1]: binds
Molecule: Mar26 (from UniProt P40098)

binding [4]: binds weakly | binding [5]: binds
B4: Radiolabeled Rip1 (protein, UniProt P08067 1-215)
chain: MLGIRSSVKTCFKPMSLTSKRLISQSLLASKSTYRTPNFDDVLKENNDADKGRSYAYFMVGAMGLLSSAGAKSTVETFISSMTATADVLAMAKVEVNLAAIPLGKNVVVKWQGKPVFIRHRTPHEIQEANSVDMSALKDPQTDADRVKDPQWLIMLGICTHLGCVPIGEAGDFGGWFCPCHGSHYDISGRIRKGPAPLNLEIPAYEFDGDKVIVG
modifications: [^35S]methionine label

Results are given in words; binding and its absence hold for the method and conditions named. Binding seen in cells or lysates may run through a third protein. Binding can be weak; no strength is given. Each block holds one molecule with its values, some of them ahead of it.
